Results reported in patent US9580471 (dated 2017).

Assay: general procedure: hybrid (solid and solution phase) peptide synthesis; 2-chlorotrityl chloride resin (1% DVB, 0.3-1.2 mmol/g); HBTU/6-Cl-HOBt/DIEA (fragment condensation in solution)
Settings: purification step, acetate (counter-ion exchange with ammonium acetate/AcOH)

Asn^1-Asp^2-Glu^3-Cys^4-Glu^5-Leu^6-Cys^7-Val^8-Asn^9-Val^10-Ala^11-Cys^12-Thr^13-Gly^14-Cys^15-Leu^16
step yield: 93%
step yield (run 1): 86.0%
step yield (run 2): 74%
final HPLC purity (analytical RP-HPLC, 215 nm, run 1): 97.2%
